{"source": "PubChem BioAssay AID504648", "about": "(National Center for Advancing Translational Sciences (NCATS), 2011)", "note": "About 610 (0.16%) of roughly 390,000 compounds were called active. Inconclusive means that the source gave no clear call. Such entries were picked first, then a sample of the others. Calls follow the shape of the dose curve; as a rule, active = well fitted inhibition curve with a large enough effect; inconclusive = small, poorly fitted or top-dose-only effect, or effect the other way, or another doubt; inactive = no such curve, though single readings can be large or run the other way. Potencies of inconclusive entries are doubtful fits and often do not repeat. % is scaled to controls: 0 for no effect and ±100 for the full control effect; potency is read from the fitted curve at half-maximal effect.", "data": [{"assay": "Nrf2 qHTS screen for inhibitors: counterscreen for cytotoxicity", "conditions": "A549 ARE-Fluc cells, CellTiter-Fluor viability, 18-24 h; activity change, negative = cytotoxicity: at 46 µM (top of the series)", "outline": "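A549 ARE-Fluc cells in 5% FBS OPTI-MEM, 5000 cells/well, rested 2 h then exposed to compounds in concentration-response for 18-24 h at 37 °C. Viability by CellTiter-Fluor fluorescence (Ex 405/Em 525) after 30 min; luciferase luminescence (BugLite, 15 min, RT) read afterwards.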", "values": [{"smiles": "COc1ccc(C2C(C(C)=O)=C(C)N=c3s/c(=C\\c4cc(C)n(C)c4C)c(=O)n32)c(OC)c1", "note": "(configuration not stated)", "Potency": "inconclusive: 16.4 µM [falling, partial curve, poor fit]"}, {"smiles": "CCCC(=O)c1c[nH]c(C(=O)NCCCN2CCOCC2)c1", "activity change, negative = cytotoxicity": "inactive: 7.55%"}, {"smiles": "Cc1cccc(CSc2nc(N)c(C#N)c(-c3cccs3)c2C#N)c1", "Potency": "inconclusive: 16.4 µM [falling, partial curve, poor fit]"}, {"smiles": "CCc1ccccc1OCC(=O)NC1CCCC1", "Potency": "inconclusive: 23.1 µM [activator, partial curve, poor fit]"}, {"smiles": "COc1ccc(OC)c(CC(=O)N2CCc3cc(OC)c(OC)cc3C2)c1", "activity change, negative = cytotoxicity": "inactive: 11%"}, {"smiles": "Cc1cccc(C)c1-n1nnnc1C1(Nc2ccccc2)CCCCC1", "Potency": "inconclusive: 29.1 µM [falling, partial curve, poor fit]"}, {"smiles": "CCN(CC(=O)Nc1cc(Cl)ccc1C)C(=O)c1ccc(=O)n(Cc2ccccc2)n1", "Potency": "inconclusive: 20.6 µM [falling, partial curve]"}, {"smiles": "Cc1cc(=O)oc2cc3c(cc12)OCCN3", "Potency": "inconclusive: 29.1 µM [activator, single point]"}, {"smiles": "CCCN(CCC)CC(O)Cn1cc(/C=C/C(=O)c2ccc(OC)cc2)c2ccccc21", "note": "(configuration not stated)", "Potency": "inconclusive: 29.1 µM [falling, single point]"}, {"smiles": "CCOC(=O)Cn1c(COc2ccccc2OC)[n+](C)c2ccccc21", "activity change, negative = cytotoxicity": "inactive: 3.07%"}, {"smiles": "CCCCCc1cc(=O)oc2c(C(CCN3CCCC(C)C3)c3cc(OC)c(OC)c(OC)c3)c(OC)cc(OC)c12", "note": "(configuration not stated)", "Potency": "inconclusive: 20.6 µM [falling, partial curve, poor fit]"}, {"smiles": "Cc1ccc(-c2[nH]ncc2CNCc2ccc(CN(C)C)cc2)cc1", "Potency": "inconclusive: 8.2 µM [falling, partial curve]"}, {"smiles": "CCOC(=O)N1CCN(C(=O)CSc2nnc(CNC(=O)c3c(F)cccc3Cl)o2)CC1", "Potency": "inconclusive: 23.1 µM [falling, single point]"}, {"smiles": "CCOC(=O)C1C(=O)NC(C(=O)OCC)(C(=O)OCC)C1C(C)CC", "note": "(configuration not stated)", "activity change, negative = cytotoxicity": "inactive: 0.619%"}, {"smiles": "Cc1cc(/C=C(\\C#N)C(=O)NC2CCCCCC2)c(C)n1C", "Potency": "inconclusive: 23.1 µM [activator, single point]"}, {"smiles": "CCOc1ccc2c(c1)c(N=Nc1cccc(C(=O)O)c1)c(O)n2C", "Potency": "inconclusive: 23.1 µM [falling, partial curve, poor fit]"}, {"smiles": "CCN1CCN(CCCNC(=O)Cn2c(-c3cccs3)cc3ccccc32)CC1", "activity change, negative = cytotoxicity": "inactive: -17.5%"}, {"smiles": "CC(=O)Nc1ccc(S(=O)(=O)Nc2ccc(N3CCCCC3)cc2)cc1", "Potency": "inconclusive: 32.6 µM [falling, partial curve, poor fit]"}, {"smiles": "COc1ccc(C2CC(c3cccs3)=NN2C(=O)CCl)cc1OC", "note": "(configuration not stated)", "Potency": "inconclusive: 29.1 µM [falling, single point]"}, {"smiles": "Nc1nc(-c2ccccc2)c(CCCOc2ccc(NC(=O)CBr)cc2)c(=O)[nH]1", "activity change, negative = cytotoxicity": "inactive: -8.24%"}, {"smiles": "COc1cc(NC(=O)C2CCN(S(=O)(=O)c3c(C)noc3/C=C/c3cccs3)CC2)cc(OC)c1", "activity change, negative = cytotoxicity": "inactive: -1.97%"}, {"smiles": "O=C(CCN1C(=O)/C(=C/c2ccccc2)SC1=S)N1CCCCCC1", "Potency": "inconclusive: 20.6 µM [falling, single point]"}, {"smiles": "O=C(Nc1ccc(Cn2cccn2)cc1)c1ccc(COc2ccccc2Br)cc1", "Potency": "inconclusive: 29.1 µM [falling, single point]"}, {"smiles": "Cc1ccc(Cn2nnc3c(=O)[nH]c(C4CCN(C(=O)c5cccs5)CC4)nc32)cc1", "activity change, negative = cytotoxicity": "inactive: 2.61%"}, {"smiles": "CCC1CN(C(=O)Nc2ccccc2C(F)(F)F)c2ccccc2O1", "note": "(configuration not stated)", "Potency": "inconclusive: 29.1 µM [falling, single point]"}, {"smiles": "Cc1ccc(S(=O)(=O)NCC(=O)OCC(=O)N(Cc2ccccc2)C(C)(C)C)cc1", "activity change, negative = cytotoxicity": "inactive: -2.76%"}, {"smiles": "COc1ccc(C2=NN(S(=O)(=O)c3ccccc3)C(c3ccccc3)C2)cc1", "note": "(configuration not stated)", "Potency": "inconclusive: 23.1 µM [activator, partial curve, poor fit]"}, {"smiles": "CC(=O)Nc1ccc(NC(=O)c2cc3c(=O)n(Cc4cccnc4)ccc3nc2C)cc1", "activity change, negative = cytotoxicity": "inactive: -0.284%"}, {"smiles": "CCOc1cc(C(=O)O/N=C(\\N)c2ccccn2)cc(OCC)c1OCC", "Potency": "inconclusive: 25.9 µM [falling, single point]"}, {"smiles": "CC1=C/C(=N\\Nc2ccccc2[N+](=O)[O-])CC(C)(C)C1", "Potency": "inconclusive: 18.4 µM [falling, partial curve, poor fit]"}, {"smiles": "S=c1[nH]nc(-c2cc3ccccc3o2)n1Cc1ccccc1", "activity change, negative = cytotoxicity": "inactive: -0.802%"}, {"smiles": "O=C(N/N=C/C=C\\c1ccco1)c1cccnc1", "activity change, negative = cytotoxicity": "inactive: -11.1%"}, {"smiles": "CC(C)Cn1c(N)c(C(=O)COC(=O)CC23CC4CC(CC(C4)C2)C3)c(=O)n(C)c1=O", "Potency": "inconclusive: 6.51 µM [falling, partial curve, poor fit]"}, {"smiles": "Cc1cccc(N2CCN(C(=O)c3ccncc3)CC2C)c1", "note": "(configuration not stated)", "Potency": "inconclusive: 4.61 µM [falling, partial curve, poor fit]"}, {"smiles": "CCc1ccc(Nc2cc(C)nc3nc(Cc4ccc(Cl)cc4)nn23)cc1", "Potency": "inconclusive: 20.6 µM [falling, single point]"}, {"smiles": "O=C(NCc1cccnc1)c1ccc([N+](=O)[O-])cc1", "activity change, negative = cytotoxicity": "inactive: 1.29%"}, {"smiles": "COCc1ccc(C(=O)N2CCCC(Nc3ccc(F)c(F)c3)C2)s1", "note": "(configuration not stated)", "Potency": "inconclusive: 4.11 µM [falling, partial curve, poor fit]"}, {"smiles": "COc1ccccc1-c1nnc2sc(COc3ccc(F)cc3)nn12", "Potency": "inconclusive: 3.26 µM [activator, partial curve, poor fit]"}, {"smiles": "Cc1cccc(NC(=O)CSc2nc3ccc(NC(=O)c4cccs4)cc3s2)c1", "Potency": "inconclusive: 23.1 µM [falling, partial curve, poor fit]"}, {"smiles": "Cn1nc(CC(=O)Nc2ccc3c(c2)OCCO3)c2ccccc2c1=O", "Potency": "inconclusive: 14.6 µM [falling, partial curve, poor fit]"}, {"smiles": "O=c1oc2c(CN3CCN(CCO)CC3)c(O)ccc2cc1-c1ccccn1", "Potency": "inconclusive: 13 µM [activator, partial curve]"}, {"smiles": "COc1cc2c(cc1OC)C(c1ccc(Cl)cc1)N(c1ccc(C)c(F)c1)C(=O)C2", "note": "(configuration not stated)", "Potency": "inconclusive: 32.6 µM [falling, partial curve, poor fit]"}, {"smiles": "CCN(CC)CCN(C(=O)c1ccco1)c1nc2c(C)cccc2s1", "Potency": "inconclusive: 16.4 µM [falling, partial curve, poor fit]"}, {"smiles": "Cc1occc1C(=O)N(C)Cc1nc(-c2ccc(Cl)cc2)no1", "Potency": "inconclusive: 20.6 µM [falling, single point]"}, {"smiles": "CCCn1c(Nc2nc3ccccc3n2C)nc2ccccc21", "Potency": "inconclusive: 29.1 µM [falling, single point]"}, {"smiles": "CC(C)Sc1nc2c(cnn2-c2ccccc2)c(=O)[nH]1", "activity change, negative = cytotoxicity": "inactive: 4.07%"}, {"smiles": "CCC(=O)NC1=C(Cl)C(=O)C(NC(=O)CC)=C(Cl)C1=O", "Potency": "inconclusive: 20.6 µM [falling, partial curve, poor fit]"}, {"smiles": "Cc1sc2ncn(CC(=O)NCCN3CCOCC3)c(=O)c2c1S(=O)(=O)N1CCC(C)CC1", "Potency": "inconclusive: 20.6 µM [activator, partial curve, poor fit]"}, {"smiles": "Cc1ccc(C(=O)CSc2nccn2-c2ccccc2)cc1", "activity change, negative = cytotoxicity": "inactive: -2.7%"}, {"smiles": "N#CC(c1nc2ccccc2nc1N1CCCC1)S(=O)(=O)c1ccccc1", "note": "(configuration not stated)", "Potency": "inconclusive: 29.1 µM [falling, single point]"}, {"smiles": "O=C(NCc1cccnc1)NC1CCCN1S(=O)(=O)c1ccc(Cl)cc1", "note": "(configuration not stated)", "Potency": "inconclusive: 32.6 µM [falling, partial curve, poor fit]"}, {"smiles": "O=C(CCCOc1ccc(Cl)cc1Cl)N/N=C/c1ccc(Cl)cc1", "Potency": "inconclusive: 6.51 µM [activator, partial curve, poor fit]"}, {"smiles": "Cc1cccn2c(=O)c(C(=O)NC3CCCCC3C)c(O)nc12", "note": "(configuration not stated)", "activity change, negative = cytotoxicity": "inactive: -16.1%"}, {"smiles": "CCOc1ccc(-c2n[nH]c3c2C(c2ccccc2OC)N(c2ccc(Br)cc2)C3=O)cc1", "note": "(configuration not stated)", "activity change, negative = cytotoxicity": "inactive: -27.1%"}, {"smiles": "COc1ccccc1N1CCN(C(=O)c2oc3ccccc3c2NC(=O)C(C)Oc2ccccc2)CC1", "note": "(configuration not stated)", "activity change, negative = cytotoxicity": "inactive: 9.54%"}, {"smiles": "COc1cc2ccccc2cc1C(=O)N(CCN(C)C)c1nc2ccc(Br)cc2s1", "Potency": "inconclusive: 18.4 µM [falling, single point]"}, {"smiles": "COc1cc(-c2nnc(CSc3nnc(Nc4ccc(C(C)C)cc4)s3)o2)cc(OC)c1OC", "Potency": "inconclusive: 20.6 µM [falling, partial curve, poor fit]"}, {"smiles": "COc1ccc(CCNC(=O)c2cc(Sc3cccc(Cl)c3)nc3ccccc23)cc1OC", "Potency": "inconclusive: 25.9 µM [falling, partial curve, poor fit]"}, {"smiles": "Cc1ccc2nc3c(cc(C(N)=S)c(=N)n3CCCOC(C)C)c(=O)n2c1", "activity change, negative = cytotoxicity": "inactive: -6.06%"}, {"smiles": "Fc1ccccc1NC(=S)NCCc1cccc(Cl)c1", "activity change, negative = cytotoxicity": "inactive: 0.715%"}, {"smiles": "CN(c1ccc(O)cc1)c1nc(O)c(C2=c3ccccc3=NC2=O)s1", "Potency": "inconclusive: 32.6 µM [falling, single point]"}, {"smiles": "O=C(NC1CCCCCC1)c1ccc(CS(=O)Cc2ccccc2Cl)o1", "note": "(configuration not stated)", "activity change, negative = cytotoxicity": "inactive: 0.001%"}, {"smiles": "Cc1ccc(NC(=O)c2ccc3c(c2)OCO3)cc1S(=O)(=O)N1CCOCC1", "Potency": "inconclusive: 20.6 µM [activator, partial curve, poor fit]"}, {"smiles": "Cc1nn(CC(=O)NNC(=S)Nc2ccccc2)c(C)c1[N+](=O)[O-]", "activity change, negative = cytotoxicity": "inactive: 4.56%"}, {"smiles": "CCn1ncc(/C=C/C(=O)Nc2c(C)nn(CC)c2C)c1C", "activity change, negative = cytotoxicity": "inactive: -0.995%"}, {"smiles": "Cc1c(C(=O)c2ccc(Cl)cc2[N+](=O)[O-])c2ccccn2c1CCC#N", "Potency": "inconclusive: 16.4 µM [falling, partial curve]"}, {"smiles": "Cc1[nH]n(-c2ccccc2)c(=O)c1/C=N/NC(=O)C(C)C", "Potency": "inconclusive: 8.2 µM [falling, partial curve, poor fit]"}]}]}
